Results reported in patent US20100204461.
For at least one entry, the source does not settle the construct or the ends of the probe.

System: alpha-thrombin
Experiment: binding assay
Settings: internal hexaethylene glycol spacer between the two parts; anchor 5' NH2-(CH2)6; fluorescence with 10-fold alpha-thrombin; Tris pH 8.0, 5 mM MgCl2, 10 mM KCl or LiCl; equilibrium reached much faster in LiCl; HEG linker improves performance vs TAL2; purified native protein; label: 5' Cy3 on TAL1, 3' Dabcyl on anchor; folded or branched DNA; variant of TAL2 beacon with Dabcyl anchor

Does “GGTTGGTTTGGTTGGCAACCTCTGCTACGTG / CACGTAGCAG [TAL1 beacon (HEG spacer) with Dabcyl anchor]” bind?
Result: binds
